Laboratory results published in publication doi:10.1101/2022.06.21.497121.

Target: PPE68 of M. marinum, endogenous (M. marinum (endogenous in M. marinum M))
Assay: native gel or EMSA

B1: MMAR_2894 (M. marinum-specific PE protein) (protein, UniProt B2HE54 1-230)
chain: MDPMSHDPAAGDIGSQLVDIGTQGISAGTTAAMTVLTGLIPAGAEEVSAQAVLAFAQEAATMLASNVAAQEELMRTGTALSDIARMYGDADDVAADALTFRGAAMSNPAAAGSSGFATGAGLRAGAFATEAGPAAQPLVSQLIGSQSSPMAAAAANAGSSAMSGAAPMGSGMGAGSSAGGASKPGLVSATGPADEEEERKDSAAAGEQNGLADVGQREDASGSHPVERLM
- binding: binds

These are yes or no findings as the source states them, for the method shown. Binding can be weak; no strength is given.
